At least one read-out could not be matched to a standard name with certainty.
These compounds were tested on Swiss mice (assay: Fat tolerance test (ftt) in mice, plasma triglyceride after olive oil load). Conditions: reduction in AUC0-4h vs vehicle group as 100%, 100, 75, 30 mg/kg or 3 mg/kg p.o., olive oil load 10 ml/kg p.o.
Assay type: in vivo

SMILES	% Reduction (Plasma triglyceride)
CC(C)[C@H](NC(=NO)c1cc(-c2ccc(Nc3nc4ccc(F)cc4s3)cc2)no1)C(=O)O [Example 8, (S)-2-({3-[4-(6-Fluoro-benzothiazol-2-ylamino)-phenyl]-N-hydroxy-isoxazole-5-carboximidoyl}-amino)-3-methyl-butyric acid]	+ (>0% Reduction ≦50)
COC[C@H](NC(=O)c1cc(-c2ccc(Nc3nc4ccc(F)cc4s3)cc2)no1)C(=O)O [Example 13, (S)-2-({3-[4-(6-Fluoro-benzothiazol-2-ylamino)-phenyl]-isoxazole-5-carbonyl}-amino)-3-methoxy-propionic acid]	+ (>0% Reduction ≦50)
COC[C@H](NC(=S)c1cc(-c2ccc(Nc3nc4ccc(F)cc4s3)cc2)no1)C(=O)O [Example 15, (S)-2-({3-[4-(6-Fluoro-benzothiazol-2-ylamino)-phenyl]-isoxazole-5-carbothioyl}-amino)-3-methoxy-propionic acid]	+ (>0% Reduction ≦50)
COC(=O)[C@@H]1CCCN1C(=O)c1cc(-c2ccc(Nc3nc4ccc(F)cc4s3)cc2)no1 [Example 18, (S)-1-{3-[4-(6-Fluoro-benzothiazol-2-ylamino)-phenyl]-isoxazole-5-carbonyl}-pyrrolidine-2-carboxylic acid methyl ester]	+ (>0% Reduction ≦50)
O=C(O)[C@@H]1CCCN1C(=O)c1cc(-c2ccc(Nc3nc4ccc(F)cc4s3)cc2)no1 [Example 19, (S)-1-{3-[4-(6-Fluoro-benzothiazol-2-ylamino)-phenyl]-isoxazole-5-carbonyl}-pyrrolidine-2-carboxylic acid]	+ (>0% Reduction ≦50)
CC(C)[C@H](NC(=O)c1cc(-c2ccc(Nc3nc4ccc(F)cc4s3)cc2)no1)C(=O)O [Example 44, (S)-2-({3-[4-(6-Fluoro-benzothiazol-2-ylamino)-phenyl]-isoxazole-5-carbonyl}-amino)-3-methyl-butyric acid]	++ (>50% Reduction ≦100)
CC(C)[C@H](NC(=S)c1cc(-c2ccc(Nc3nc4ccc(F)cc4s3)cc2)no1)C(=O)O [Example 45, (S)-2-({3-[4-(6-Fluoro-benzothiazol-2-ylamino)-phenyl]-isoxazole-5-carbothioyl}-amino)-3-methyl-butyric acid]	+ (>0% Reduction ≦50)
COC(=O)C(NC(=O)c1cc(-c2ccc(NC(=O)Nc3ccccc3F)cc2)no1)C(C)C (centres unmarked) [Example 105, 2-[(3-{4-[3-(2-Fluoro-phenyl)ureido]-phenyl}-isoxazole-5-carbonyl)-amino]-3-methyl-butyric acid methyl ester]	++ (>50% Reduction ≦100)
CC(C)C(NC(=O)c1cc(-c2ccc(NC(=O)Nc3ccccc3F)cc2)no1)C(=O)O (centres unmarked) [Example 106, 2-(3-(4-(3-(2-Fluorophenyl)ureido)phenyl)isoxazole-5-carboxamido)-3-methylbutanoic acid]	++ (>50% Reduction ≦100)
CC(C)C(NC(=O)c1cc(-c2ccc(NC(=O)Nc3ccc(F)cc3F)cc2)no1)C(=O)O (centres unmarked) [Example 112, 2-(3-(4-(3-(2,4-Difluorophenyl)ureido)phenyl)isoxazole-5-carboxamido)-3-methylbutanoic acid]	++ (>50% Reduction ≦100)
CC(C)[C@H](NC(=O)c1cc(-c2ccc(NC(=O)Nc3ccc(F)cc3F)cc2F)no1)C(=O)O [Example 142, (S)-2-(3-(4-(3-(2,4-difluorophenyl)ureido)-2-fluorophenyl)isoxazole-5-carboxamido)-3-methylbutanoic acid]	+ (>0% Reduction ≦50)
COC(=O)[C@@H](NC(=O)c1cc(-c2ccc(NC(=O)Nc3ccc(C)c(C)c3)cc2)no1)C(C)C [Example 172, (S)-methyl 2-(3-(4-(3-(3,4-dimethylphenyl)ureido)phenyl)isoxazole-5-carboxamido)-3-methylbutanoate]	++ (>50% Reduction ≦100)
Cc1ccc(NC(=O)Nc2ccc(-c3cc(C(=O)N[C@H](C(=O)O)C(C)C)on3)cc2)cc1C [Example 173, (S)-2-(3-(4-(3-(3,4-dimethylphenyl)ureido)phenyl)isoxazole-5-carboxamido)-3-methylbutanoic acid]	++ (>50% Reduction ≦100)
COC(=O)[C@@H](NC(=O)c1cc(-c2ccc(NC(=O)Nc3ccc(Cl)cc3Oc3ccccc3)cc2)no1)C(C)C [Example 200, (S)-Methyl 2-(3-(4-(3-(4-chloro-2-phenoxyphenyl)ureido)phenyl)isoxazole-5-carboxamido)-3-methylbutanoate]	++ (>50% Reduction ≦100)
CC(C)[C@H](NC(=O)c1cc(-c2ccc(NC(=O)Nc3ccc(Cl)cc3Oc3ccccc3)cc2)no1)C(=O)O [Example 201, (S)-2-(3-(4-(3-(4-Chloro-2-phenoxyphenyl)ureido)phenyl)isoxazole-5-carboxamido)-3-methylbutanoic acid]	+ (>0% Reduction ≦50)
Cc1cccc(NC(=O)Nc2ccc(-c3cc(C(=O)N[C@H](C(=O)O)C(C)C)on3)cc2)c1 [Example 266, (S)-3-methyl-2-(3-(4-(3-m-tolylureido)phenyl)isoxazole-5-carboxamido)butanoic acid]	+ (>0% Reduction ≦50)
CC(C)C(NC(=O)c1cc(-c2ccc(NC(=O)Nc3cccc(C(F)(F)F)c3)cc2)no1)C(=O)O (centres unmarked) [Example 278, 3-Methyl-2-(3-(4-(3-(3-(trifluoromethyl)phenyl)ureido)phenyl)isoxazole-5-carboxamido)butanoic acid]	+ (>0% Reduction ≦50)
